# Experimental data published in PubChem BioAssay AID720504 (National Center for Advancing Translational Sciences (NCATS), 2013).
# Chains of the proteins cited; added tags and fusions are not shown.
# UniProt P53350, whole entry, looked up: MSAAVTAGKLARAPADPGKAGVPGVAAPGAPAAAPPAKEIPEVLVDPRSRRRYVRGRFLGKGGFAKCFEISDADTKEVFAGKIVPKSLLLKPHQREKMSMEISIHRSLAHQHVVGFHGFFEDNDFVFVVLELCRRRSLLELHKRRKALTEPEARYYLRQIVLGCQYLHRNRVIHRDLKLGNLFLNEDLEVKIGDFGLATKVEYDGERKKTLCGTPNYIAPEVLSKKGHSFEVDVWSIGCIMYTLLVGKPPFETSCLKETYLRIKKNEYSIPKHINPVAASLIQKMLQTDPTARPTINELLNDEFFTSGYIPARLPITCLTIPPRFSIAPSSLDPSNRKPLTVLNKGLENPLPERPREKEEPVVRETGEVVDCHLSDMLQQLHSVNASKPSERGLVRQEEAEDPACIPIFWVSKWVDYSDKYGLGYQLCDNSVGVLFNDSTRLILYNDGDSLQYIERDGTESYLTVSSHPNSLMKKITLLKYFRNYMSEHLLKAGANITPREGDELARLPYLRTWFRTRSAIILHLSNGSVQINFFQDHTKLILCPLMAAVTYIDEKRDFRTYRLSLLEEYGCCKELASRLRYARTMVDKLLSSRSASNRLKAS
# Several values for one entry are separate records, joined by “and”; a condition that tells them apart may be missing. Equal entries are not always repeated. In all, about 360,000 compounds went through this assay and about 10,000 (2.8%) were called active. The inconclusive results got no clear call from the source; some entries with a clear call stand among them for comparison. Calls come from the whole dose curve; as a rule, active = well fitted inhibition curve with a large enough effect; inconclusive = small, poorly fitted or top-dose-only effect; inactive = flat fitted curve, though single readings scatter. Where the call is inconclusive, the potency comes from a doubtful curve fit.
# Target: Serine/threonine-protein kinase PLK1 (Homo sapiens) (UniProt P53350)
# Experiment: qHTS for Inhibitors of PLK1-PDB (polo-like kinase 1 - polo-box domain): Primary Screen; note: nearly all actives have a fitted effect of over 65% in size; for max response, negative = inhibition: series mostly up to about 57 µM
# Conditions: Plk1 PBD binding of FITC phosphopeptide, fluorescence polarization
# % is set by controls: 0 for no effect and ±100 for the full control effect; potency is the fitted concentration of half-maximal effect.
Compound,Potency,"max response, negative = inhibition"
COc1ccccc1N1C(=O)NC(=O)/C(=C/c2ccc([N+](=O)[O-])s2)C1=O,active: 3.36 µM,
COc1cc2c(cc1/C=C/[N+](=O)[O-])OCO2,"inconclusive: 11.9 µM [inhibitor, partial curve]",
COc1ccccc1N1C(=O)NC(=O)/C(=C/c2ccc3c(c2)Cc2ccccc2-3)C1=O,active: 5.32 µM,
O=C(O)CCC(=O)NCCC1=c2ccccc2=N/C1=C\c1c(O)n(Cc2ccc(F)cc2)c(=S)[nH]c1=O,active: 1.19 µM,
O=c1oc2ccccc2c(O)c1[C@H]1c2ccc(O)cc2Oc2c1c(=O)oc1ccccc21,"inconclusive: 33.6 µM [inhibitor, single point]",
O=C1NC(=O)C(=Cc2ccc(Oc3ccc([N+](=O)[O-])cc3)cc2)C(=O)N1,active: 2.99 µM,
CN(C)c1ccc2c(c1)N=C(c1ccco1)OP2(=S)N1CCOCC1 (stereo unspecified),active: 18.9 µM,
N#CCn1c(CCl)nc2ccccc2c1=O,"inconclusive: 29.9 µM [inhibitor, partial curve]",
CCOC(=O)C1(Cc2ccc(Cl)cc2)CCN(C(C)CCn2cccn2)CC1 (stereo unspecified),,inactive: -2.75%
O=C(c1ccc2c(c1)OCO2)C1CCCN(Cc2ccccn2)C1 (stereo unspecified),,inactive: 5.84%
O=CC(Br)P(=O)(N1CCOCC1)N1CCOCC1 (stereo unspecified),"inconclusive: 26.7 µM [inhibitor, partial curve]",
CCN1C(=O)NC(=O)/C(=C\c2cn(CC(=O)N3CCCCC3C)c3ccccc23)C1=O (stereo unspecified),"inconclusive: 5.97 µM [inhibitor, full curve]",
C#CCOc1ccc(Br)cc1C(c1c(C)[nH][nH]c1=O)c1c(C)[nH][nH]c1=O,"inconclusive: 21.2 µM [inhibitor, partial curve]",
Cc1ccc2cc(C=C(C#N)C#N)c(Cl)nc2c1,active: 8.44 µM,
Cn1cccc1/C=C1/C(=O)NC(=O)N(Cc2ccc(F)cc2)C1=O,"inconclusive: 2.67 µM [inhibitor, full curve]",
Cc1ccc(P(=S)(c2ccc(C)o2)N2CCOCC2)o1,,inconclusive: -31.5% [inhibitor]
COC(=O)C1=C(c2cccc(OCc3ccccc3)c2)C[C@@H]2CC[C@H]1N2C(=O)NCc1ccc(N(C)C)cc1,,inactive: -3.4%
CCCCCn1c(NC(=O)c2ccco2)c(C(=O)OCC)c2nc3ccccc3nc21,"inconclusive: 4.74 µM [inhibitor, full curve]",
CCOC(=O)[C@]12Cc3cc(OC)ccc3[C@H]1N(C(C)C)C(=O)c1cc(OC)ccc12,active: 8.44 µM,
O=C(CN1CCOCC1)c1ccc(Br)cc1,"inconclusive: 23.8 µM [inhibitor, partial curve]",
CC1CCN(C(CC(=O)c2ccccc2)C(=O)c2ccccc2)CC1 (stereo unspecified),"inconclusive: 2.67 µM [inhibitor, partial curve]",
CSc1nc(N)c(N=Nc2ccc([As](=O)(O)O)cc2)c(=O)[nH]1,active: 10.6 µM,
O=C1NC(=O)C(=Cc2ccsc2)C(=O)N1,active: 6.7 µM,

Compound,Potency,"max response, negative = inhibition"
CNC(=O)Oc1ccc(-c2cn3cc(Cl)ccc3n2)cc1,"inconclusive: 23.8 µM [inhibitor, partial curve]",
Nn1c(COc2ccc(Cl)cc2)n[nH]c1=S,"inconclusive: 26.7 µM [inhibitor, single point]",
O=C(c1cc(-c2ccc(Cl)cc2)n(-c2ccc(Cl)cc2Cl)n1)N1CCOCC1,,inactive: 4.88%
O=c1[nH]c(=O)n(CC2CCCO2)c(O)c1/C=C1\C=Nc2ccccc21 (stereo unspecified),active: 23.8 µM and active: 26.7 µM,
C(=NC12CN3CN(CN(C3)C1)C2)c1cccs1,,inactive: -1.49%
Cc1cc(C)cc(OCCOc2cccc(C=C3C(=O)NC(=O)NC3=O)c2)c1,active: 5.97 µM,
Cc1cccc(OCC(=O)N2CCN(Cc3ccncc3)CC2)c1,,inactive: 2.43%
COc1ccc(C2=NCC(=O)N(CC(=O)NCc3ccco3)c3sc4c(c32)CCCC4)cc1,,inactive: -20.6%
Cc1cccc(N2C(=O)NC(=O)/C(=C/c3cc4c(cc3[N+](=O)[O-])OCO4)C2=O)c1,active: 5.32 µM,
COc1ccc(-c2cc(=Nc3cccc(C(=O)O)c3)c3cc(C)ccc3o2)cc1,"inconclusive: 29.9 µM [inhibitor, single point]",
C=C(C)C1(CCCC)C(=O)NC(=S)NC1=O,,inactive: 0.58%
Cc1ccc(C(=O)C2C(c3ccc(-c4ccccc4[N+](=O)[O-])o3)NC(=O)NC2(O)C(F)(F)F)cc1 (stereo unspecified),"inconclusive: 21.2 µM [inhibitor, partial curve]",
CC/C(=N\NC(=O)c1ccccc1)c1c(O)n(Cc2ccccc2)c(=O)[nH]c1=O,,inactive: -11.2%
CC12CC[C@H]3[C@@H](CCC4(O)C[C@H](O)CCC34/C=N/NC(=O)c3ccccc3[N+](=O)[O-])C1(O)CCC2C1=CC(=O)OC1 (stereo partly specified),"inconclusive: 4.74 µM [inhibitor, full curve, poor fit]",
O=C1NC(=S)N(c2ccccc2F)C(=O)/C1=C\c1cccs1,active: 7.52 µM,
CCOC(=O)[C@]12Cc3cc(OC)ccc3[C@H]1N(C(C)C)C(=O)c1ccccc12,"inconclusive: 6.7 µM [inhibitor, single point]",
CCOC(=O)[C@]12Cc3ccccc3[C@H]1N(C1CCCCC1)C(=O)c1cc(OC)ccc12,active: 10.6 µM,
COc1ccc(N/N=C/c2c(O)n(-c3ccc(C)c(C)c3)c(=O)[nH]c2=O)cc1,"inconclusive: 23.8 µM [inhibitor, partial curve]",
CCOC(=O)Cn1cc(C=C2C(=O)N(C)C(=O)N(C)C2=O)c2ccccc21,"inconclusive: 13.4 µM [inhibitor, partial curve]",
O=C(COC(=O)Cc1ccccc1)NCCNC(=O)COC(=O)Cc1ccccc1,,inactive: -2.99%
O=C(c1cc(S(=O)(=O)N2CCOCC2)ccc1F)N1CCC2(CC1)OCCO2,,inactive: -4.68%
O=C(OCCN1CCOCC1)C1(c2ccccc2)CCCC1,"inconclusive: 23.8 µM [inhibitor, single point]",
C[C@]12CCC(=O)C=C1CCC1C2CC[C@@]2(C)C1CC[C@]2(C)O (stereo partly specified),"inconclusive: 2.67 µM [inhibitor, partial curve]",
Cn1cc(C(=O)N2CCOCC2)c2ccccc21,,inactive: 3.92%

# Arranged by number of heavy atoms (rising): some entries from above.
Compound,Potency,"max response, negative = inhibition"
C=C(C)C1(CCCC)C(=O)NC(=S)NC1=O,,inactive: 0.58%
CNC(=O)Oc1ccc(-c2cn3cc(Cl)ccc3n2)cc1,"inconclusive: 23.8 µM [inhibitor, partial curve]",
CCOC(=O)Cn1cc(C=C2C(=O)N(C)C(=O)N(C)C2=O)c2ccccc21,"inconclusive: 13.4 µM [inhibitor, partial curve]",

# Following part:

Compound,Potency,"max response, negative = inhibition"
Cc1cc(/C=C2\C(=O)NC(=O)N(c3cccc(F)c3)C2=O)c(C)n1-c1cc(C(=O)O)cc(C(=O)O)c1,"inconclusive: 23.8 µM [inhibitor, single point]",
O=c1[nH]c(=S)[nH]c(O)c1N=Nc1ccc(S(=O)(=O)N2CCOCC2)cc1,"inconclusive: 26.7 µM [inhibitor, partial curve]",
CC(C(=O)c1c[nH]c2ccccc12)N1CCSCC1 (stereo unspecified),"inconclusive: 11.9 µM [inhibitor, partial curve]",
CC(C)(C)CC(=O)Nc1nnc(SCC(=O)NCc2cccs2)s1,"inconclusive: 29.9 µM [inhibitor, single point]",
O=C1NC(=O)N(Cc2ccco2)C(=O)/C1=C/c1cccn1CCOc1ccccc1Cl,"inconclusive: 1.5 µM [inhibitor, full curve]",
COC(=O)NC(=S)Nc1ccccc1NC(=S)NC(=O)OC,"inconclusive: 21.2 µM [inhibitor, partial curve]",
Cc1cccc(-n2c(O)c(/C=N/Nc3nc4c(c(=O)n(C)c(=O)n4C)n3C)c(=O)[nH]c2=S)c1,"inconclusive: 29.9 µM [inhibitor, partial curve]",
CC(=O)OC1N=C(c2ccccc2Cl)c2cc(Br)ccc2N(C)C1=O (stereo unspecified),,inactive: -6.23%
CN1CCC(O)(c2cccs2)C(C(=O)c2cccs2)C1 (stereo unspecified),active: 26.7 µM,
O=C1/C(=C/c2ccc3c(c2)OCO3)N2CCC1CC2,,inactive: -7.59%
COc1ccc(/C=N/N=C(/N)N[N+](=O)[O-])c(OC)c1,,inactive: 1.51%
CC(=O)O[C@H]1C(=O)[C@@]2(C)C([C@H](OC(=O)c3ccccc3)[C@]3(O)C[C@H](O)C(C)=C1C3(C)C)[C@]1(OC(C)=O)CO[C@@H]1C[C@H]2O (stereo partly specified),,inactive: 2.3%
COC(=O)c1ccc(NC(=O)NC(=O)Oc2ccccc2)cc1,,inconclusive: -31.5% [inhibitor]
Cc1ccc(OC(F)F)c(N2C(=O)C3C4CCC(O4)C3C2=O)c1 (stereo unspecified),,inactive: -0.712%
CN1CSC(=S)N(C)C1,"inconclusive: 26.7 µM [inhibitor, partial curve]",
O=C1C=CC(=O)C=C1,"inconclusive: 5.97 µM [inhibitor, single point]",
CN(C)c1ccc(/C=C/C=C2/C(=O)NC(=O)N(c3ccccc3)C2=O)cc1,,inconclusive: -23.9% [inhibitor]
Cc1ccc2c(C)cccc2c1,"inconclusive: 0.752 µM [inhibitor, full curve, poor fit]",
CC(C)CCC[C@@H](C)[C@H]1CC[C@H]2[C@@H]3C(=O)C=C4C[C@@H](O)CC[C@]4(C)[C@H]3CC[C@]12C,"inconclusive: 33.6 µM [inhibitor, partial curve]",
Cc1ccc(N)c(C)c1,,inactive: 1.41%
O=C(O)C1Sc2[nH]c(=O)sc2C2c3cc(Cl)ccc3OC(=O)C12 (stereo unspecified),"inconclusive: 29.9 µM [inhibitor, partial curve]",
CC(=O)Nc1ccc([As](=O)(O)c2ccc([N+](=O)[O-])cc2)cc1,,inactive: -9.72%
CCN1C(=O)/C(=C/c2ccc3c(c2)CCN3CCCCl)C(=O)NC1=S,active: 1.5 µM,
